Results: patent US20030207863A1, “Preventives and remedies for central nervous system diseases” (priority 2000, published 2003)
At least one compound was matched to its structure with a doubt left.

System: IMR32 cells
Assay: Amyloid β protein in culture supernatant of IMR32 cells after addition of urotensin II, by enzyme immunoassay
Format: cell-based
Settings: 10 nM urotensin II alone, cultured 24 hours, significance at ≦1%, FIG. 1
Experimental: Test compound 1 was added to IMR32 cells at various concentrations (μM) 10 minutes before addition of 10 nM of urotensin II. Then, urotensin II was added in the presence or absence of test compound 1, the mixture was cultured for 24 hours, and the amount of amyloid β protein in the supernatant of the culture was determined by enzyme immunoassay (Biochemistry, Vol.34, No.32, pp. 10272-10278, (1995)). Test compound 2 as described hereinafter (the compound of Synthesis Example 5) was used and added at a concentration of 1 nM, and the amount of amyloid β protein was determined in the same manner as that of Experimental Example 1. Namely, IMR32 cells were used and test compound 2 was added at a concentration of 1 nM 10 minutes before addition of 10 nM of urotensin II. After addition of urotensin II, the mixture was cultured for 24 hours and the amount of amyloid β protein in the supernatant of the culture was determined by enzyme immunoassay.

CC(C)[C@H](NC(=O)[C@@H]1CSSC[C@H](NC(=O)[C@H](CC(=O)O)NC(=O)[C@@H]2CCCN2C(=O)[C@@H](NC(=O)[C@@H](N)CCC(=O)O)[C@@H](C)O)C(=O)N[C@@H](Cc2ccccc2)C(=O)N[C@@H](Cc2c[nH]c3ccccc23)C(=O)N[C@@H](CCCCN)C(=O)N[C@@H](Cc2ccc(O)cc2)C(=O)N1)C(=O)O [urotensin II, reference compound]
secretion of amyloid β40 versus the group without addition of urotensin II: significant increase
